These are yes or no findings as the source states them, for the method shown. Binding seen in cells or lysates may run through a third protein. For some of these results: Binding can be weak; no strength is given. Where a sequence is shown, tags or fusion partners need not be part of it. Blank lines part the entries; values can stand above or below the binder they belong to.
Columns and labels:
[1] = molecular target: SlGGPPS2 (tomato geranylgeranyl diphosphate synthase 2), C-terminal Myc tag (tomato (Solanum lycopersicum)); assay: co-IP
[2] = molecular target: SlGGPPS3 (tomato geranylgeranyl diphosphate synthase 3), C-terminal Myc tag (tomato (Solanum lycopersicum)); assay: co-IP

binding [1]: binds
binding [2]: no binding
B1: Phytoene synthase 2 (PSY2), tomato, C-terminal HA tag (enzyme, UniProt P37273 26-310)
chain: EYAKTFYLGTMLMTPDRRRAIWAIYVWCRRTDELVDGPNASHITPQALDRWEARLEDIFNGRPFDMLDAALSDTVSRFPVDIQPFRDMVEGMRMDLWKSRYNNFDELYLYCYYVAGTVGLMSVPIMGIAPESKATTESVYNAALALGIANQLTNILRDVGEDARRGRVYLPQDELAQAGLSDEDIFAGKVTDKWRIFMKKQIQRARKFFDEAEKGVTELSSASRWPVLASLLLYRKILDEIEANDYNNFTRRAYVSKPKKLLTLPIAYARSLVPPKSTSCPLAKT

binding [1]: binds
binding [2]: no binding
B2: Phytoene synthase 1 (PSY1), tomato, C-terminal HA tag (enzyme, UniProt P08196 130-412)
chain: EYAKTFNLGTMLMTPERRRAIWAIYVWCRRTDELVDGPNASYITPAALDRWENRLEDVFNGRPFDMLDGALSDTVSNFPVDIQPFRDMIEGMRMDLRKSRYKNFDELYLYCYYVAGTVGLMSVPIMGIAPESKATTESVYNAALALGIANQLTNILRDVGEDARRGRVYLPQDELAQAGLSDEDIFAGRVTDKWRIFMKKQIHRARKFFDEAEKGVTELSSASRFPVWASLVLYRKILDEIEANDYNNFTKRAYVSKSKKLIALPIAYAKSLVPPTKTASLQR
